Results as given in the supplement of paper PMC12823440, “Inhibitors supercharge kinase turnover through native proteolytic circuits” (Nature, 2025).
Structures can show the parent of a compound that is named as a salt. The list shows a part of the results. The calls rarely recur for the same compound in another form.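 In K562 cells expressing nanoluciferase-fused kinases, luminescence was recorded at 4 h intervals between 2 and 18 h, normalized as percent of control with DMSO at 100% and a positive control at 0%. A significant (2 sigma) signal drop marks a time point as decreased. The authors' rule for a hit is not shown and takes in more than the number of time points.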

Sequences of proteins named here, by UniProt entry; tags and fusion partners are left off. A change or cut given only in a name is not applied to a line headed by its entry.
UniProt Q05397, whole entry, looked up: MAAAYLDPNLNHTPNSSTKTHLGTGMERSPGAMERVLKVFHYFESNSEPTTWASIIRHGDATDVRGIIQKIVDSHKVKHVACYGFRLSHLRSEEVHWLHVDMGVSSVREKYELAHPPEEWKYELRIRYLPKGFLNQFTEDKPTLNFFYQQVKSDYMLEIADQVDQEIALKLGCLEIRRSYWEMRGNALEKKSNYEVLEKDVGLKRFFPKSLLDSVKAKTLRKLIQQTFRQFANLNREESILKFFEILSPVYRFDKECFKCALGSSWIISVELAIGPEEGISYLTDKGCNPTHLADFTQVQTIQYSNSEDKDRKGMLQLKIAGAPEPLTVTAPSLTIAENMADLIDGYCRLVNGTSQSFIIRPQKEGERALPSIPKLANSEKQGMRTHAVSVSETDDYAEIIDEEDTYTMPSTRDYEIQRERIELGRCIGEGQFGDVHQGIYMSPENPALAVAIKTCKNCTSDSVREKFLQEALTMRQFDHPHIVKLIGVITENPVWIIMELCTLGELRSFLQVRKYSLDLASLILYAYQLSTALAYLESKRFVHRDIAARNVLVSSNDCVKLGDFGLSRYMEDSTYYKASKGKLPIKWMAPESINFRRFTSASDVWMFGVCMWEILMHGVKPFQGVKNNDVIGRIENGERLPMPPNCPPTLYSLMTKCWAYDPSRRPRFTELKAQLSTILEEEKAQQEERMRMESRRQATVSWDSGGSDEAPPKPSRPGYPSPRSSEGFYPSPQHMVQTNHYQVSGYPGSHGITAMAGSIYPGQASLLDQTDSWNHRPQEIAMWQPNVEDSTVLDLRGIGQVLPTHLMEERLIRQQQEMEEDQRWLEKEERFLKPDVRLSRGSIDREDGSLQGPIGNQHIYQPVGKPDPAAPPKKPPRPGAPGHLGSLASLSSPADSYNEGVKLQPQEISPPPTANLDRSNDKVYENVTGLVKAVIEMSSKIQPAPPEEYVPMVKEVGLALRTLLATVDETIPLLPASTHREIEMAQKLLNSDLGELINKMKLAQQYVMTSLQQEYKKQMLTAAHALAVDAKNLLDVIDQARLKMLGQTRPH
UniProt Q14289, whole entry, looked up: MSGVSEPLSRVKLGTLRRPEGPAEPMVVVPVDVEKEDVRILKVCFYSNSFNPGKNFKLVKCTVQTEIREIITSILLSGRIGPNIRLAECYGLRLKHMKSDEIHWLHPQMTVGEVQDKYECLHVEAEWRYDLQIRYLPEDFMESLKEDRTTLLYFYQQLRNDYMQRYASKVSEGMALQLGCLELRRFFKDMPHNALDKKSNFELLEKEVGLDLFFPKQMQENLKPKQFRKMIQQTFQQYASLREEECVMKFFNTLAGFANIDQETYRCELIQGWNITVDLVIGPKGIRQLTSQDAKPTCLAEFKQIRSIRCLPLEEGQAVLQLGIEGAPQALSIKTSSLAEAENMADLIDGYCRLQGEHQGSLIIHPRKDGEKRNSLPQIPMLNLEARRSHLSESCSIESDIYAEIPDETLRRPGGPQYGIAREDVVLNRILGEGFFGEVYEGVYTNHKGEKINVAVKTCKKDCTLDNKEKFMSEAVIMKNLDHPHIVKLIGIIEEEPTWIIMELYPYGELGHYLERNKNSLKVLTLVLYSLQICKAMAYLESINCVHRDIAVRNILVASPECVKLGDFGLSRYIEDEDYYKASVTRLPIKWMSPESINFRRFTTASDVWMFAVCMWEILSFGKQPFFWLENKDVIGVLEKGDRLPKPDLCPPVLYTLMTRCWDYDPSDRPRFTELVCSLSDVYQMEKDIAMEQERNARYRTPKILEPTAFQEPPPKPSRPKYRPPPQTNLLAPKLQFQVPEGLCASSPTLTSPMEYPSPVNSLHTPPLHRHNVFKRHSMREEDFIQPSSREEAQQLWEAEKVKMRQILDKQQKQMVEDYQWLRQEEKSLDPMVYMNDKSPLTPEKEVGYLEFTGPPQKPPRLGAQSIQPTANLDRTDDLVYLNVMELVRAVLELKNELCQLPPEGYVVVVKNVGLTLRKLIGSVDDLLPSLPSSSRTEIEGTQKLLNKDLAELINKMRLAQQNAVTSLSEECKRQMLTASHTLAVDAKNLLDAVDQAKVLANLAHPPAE
UniProt P07949, whole entry, looked up: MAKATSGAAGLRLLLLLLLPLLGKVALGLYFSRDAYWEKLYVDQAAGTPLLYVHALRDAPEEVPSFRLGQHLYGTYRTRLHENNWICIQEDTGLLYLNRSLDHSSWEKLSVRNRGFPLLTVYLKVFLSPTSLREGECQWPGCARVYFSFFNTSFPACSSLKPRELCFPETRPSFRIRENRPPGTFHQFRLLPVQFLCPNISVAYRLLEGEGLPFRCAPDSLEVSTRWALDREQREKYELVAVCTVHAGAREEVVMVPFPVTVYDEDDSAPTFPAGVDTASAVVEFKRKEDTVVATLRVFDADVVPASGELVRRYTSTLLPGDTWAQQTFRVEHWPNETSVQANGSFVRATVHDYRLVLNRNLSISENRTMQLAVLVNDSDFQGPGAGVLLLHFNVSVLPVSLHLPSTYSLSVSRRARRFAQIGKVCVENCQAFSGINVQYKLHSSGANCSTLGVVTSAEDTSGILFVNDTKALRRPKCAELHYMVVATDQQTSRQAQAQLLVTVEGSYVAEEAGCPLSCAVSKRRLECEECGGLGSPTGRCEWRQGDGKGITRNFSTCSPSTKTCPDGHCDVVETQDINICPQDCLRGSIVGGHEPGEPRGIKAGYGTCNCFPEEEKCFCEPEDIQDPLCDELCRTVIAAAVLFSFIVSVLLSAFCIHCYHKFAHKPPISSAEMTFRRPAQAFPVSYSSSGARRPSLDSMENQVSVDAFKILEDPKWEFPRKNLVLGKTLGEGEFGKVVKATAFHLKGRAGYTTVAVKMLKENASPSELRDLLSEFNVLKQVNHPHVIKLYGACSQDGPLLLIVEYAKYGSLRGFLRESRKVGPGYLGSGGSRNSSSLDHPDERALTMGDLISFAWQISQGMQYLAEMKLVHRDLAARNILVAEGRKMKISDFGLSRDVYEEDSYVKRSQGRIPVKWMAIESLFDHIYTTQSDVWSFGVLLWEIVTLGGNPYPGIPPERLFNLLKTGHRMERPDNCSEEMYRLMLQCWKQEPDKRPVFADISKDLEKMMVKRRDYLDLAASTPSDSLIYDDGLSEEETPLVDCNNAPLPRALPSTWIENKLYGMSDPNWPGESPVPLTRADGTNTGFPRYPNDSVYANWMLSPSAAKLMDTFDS
UniProt P07949, whole entry M918T, looked up: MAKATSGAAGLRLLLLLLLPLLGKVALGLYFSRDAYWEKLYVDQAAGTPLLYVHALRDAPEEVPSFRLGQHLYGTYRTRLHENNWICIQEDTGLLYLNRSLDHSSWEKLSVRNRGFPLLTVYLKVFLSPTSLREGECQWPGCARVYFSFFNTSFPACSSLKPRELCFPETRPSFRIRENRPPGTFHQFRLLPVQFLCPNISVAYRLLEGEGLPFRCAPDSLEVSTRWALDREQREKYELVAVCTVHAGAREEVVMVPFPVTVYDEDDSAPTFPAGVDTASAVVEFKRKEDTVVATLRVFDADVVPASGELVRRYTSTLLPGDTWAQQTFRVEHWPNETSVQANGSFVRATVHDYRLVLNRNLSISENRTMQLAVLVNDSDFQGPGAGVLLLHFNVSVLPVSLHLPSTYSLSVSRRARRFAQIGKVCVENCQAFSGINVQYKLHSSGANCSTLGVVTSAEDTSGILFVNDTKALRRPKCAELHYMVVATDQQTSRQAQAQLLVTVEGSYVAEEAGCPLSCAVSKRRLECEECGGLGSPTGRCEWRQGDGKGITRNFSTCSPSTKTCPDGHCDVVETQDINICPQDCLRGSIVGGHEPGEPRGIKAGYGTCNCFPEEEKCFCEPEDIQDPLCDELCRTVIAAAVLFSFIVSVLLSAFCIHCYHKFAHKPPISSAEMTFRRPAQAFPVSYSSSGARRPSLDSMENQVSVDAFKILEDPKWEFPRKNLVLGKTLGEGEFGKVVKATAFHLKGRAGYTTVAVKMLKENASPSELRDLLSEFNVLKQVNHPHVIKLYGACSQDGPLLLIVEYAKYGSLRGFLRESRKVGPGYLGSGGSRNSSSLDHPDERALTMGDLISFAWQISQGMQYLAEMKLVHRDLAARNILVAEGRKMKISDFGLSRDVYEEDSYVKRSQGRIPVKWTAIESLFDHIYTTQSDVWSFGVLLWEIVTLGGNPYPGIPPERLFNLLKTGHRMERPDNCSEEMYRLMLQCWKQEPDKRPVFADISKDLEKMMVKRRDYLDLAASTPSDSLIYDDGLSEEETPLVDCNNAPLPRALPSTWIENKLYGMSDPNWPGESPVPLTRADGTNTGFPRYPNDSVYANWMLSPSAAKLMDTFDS
UniProt Q9BRS2: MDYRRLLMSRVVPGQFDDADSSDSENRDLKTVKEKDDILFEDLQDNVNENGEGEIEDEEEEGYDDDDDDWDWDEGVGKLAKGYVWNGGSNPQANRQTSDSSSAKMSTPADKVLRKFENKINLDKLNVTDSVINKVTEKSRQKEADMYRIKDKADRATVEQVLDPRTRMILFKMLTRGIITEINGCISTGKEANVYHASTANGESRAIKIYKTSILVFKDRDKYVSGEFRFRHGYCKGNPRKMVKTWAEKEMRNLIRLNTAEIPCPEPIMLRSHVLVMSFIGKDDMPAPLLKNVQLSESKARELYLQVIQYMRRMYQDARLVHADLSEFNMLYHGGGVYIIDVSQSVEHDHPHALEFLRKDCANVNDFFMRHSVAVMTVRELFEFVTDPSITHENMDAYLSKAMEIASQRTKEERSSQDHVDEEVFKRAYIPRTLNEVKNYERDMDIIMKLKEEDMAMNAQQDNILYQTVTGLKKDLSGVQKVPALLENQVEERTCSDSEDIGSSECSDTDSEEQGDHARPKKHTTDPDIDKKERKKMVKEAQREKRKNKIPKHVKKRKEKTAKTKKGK
UniProt Q13546: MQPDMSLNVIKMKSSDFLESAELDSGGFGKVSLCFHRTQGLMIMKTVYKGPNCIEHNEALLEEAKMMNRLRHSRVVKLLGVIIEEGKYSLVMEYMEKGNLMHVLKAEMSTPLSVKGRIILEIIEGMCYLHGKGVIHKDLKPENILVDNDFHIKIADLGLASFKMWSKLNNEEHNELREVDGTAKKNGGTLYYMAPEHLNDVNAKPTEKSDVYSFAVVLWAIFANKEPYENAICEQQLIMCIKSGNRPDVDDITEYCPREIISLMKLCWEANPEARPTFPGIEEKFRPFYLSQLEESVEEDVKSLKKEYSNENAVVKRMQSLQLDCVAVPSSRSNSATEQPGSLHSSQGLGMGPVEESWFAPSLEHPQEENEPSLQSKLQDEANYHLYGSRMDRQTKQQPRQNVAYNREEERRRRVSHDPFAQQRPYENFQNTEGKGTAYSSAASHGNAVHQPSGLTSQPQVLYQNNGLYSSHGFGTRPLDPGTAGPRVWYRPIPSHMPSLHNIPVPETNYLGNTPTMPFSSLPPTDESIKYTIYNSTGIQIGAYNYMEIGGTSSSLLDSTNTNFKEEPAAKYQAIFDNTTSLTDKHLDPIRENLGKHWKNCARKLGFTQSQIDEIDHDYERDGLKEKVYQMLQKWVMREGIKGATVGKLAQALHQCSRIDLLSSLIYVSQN

How the values were obtained:
Assay in all cases: number of time points (of 5) at which kinase-Nluc abundance scored as decreased, DMSO-normalised (count); higher = more persistent destabilization
Details in all cases: K562; 2-18 h
[1] = molecular target: PRKCA (UniProt P17252)
[2] = molecular target: PTK2 (UniProt Q05397)
[3] = molecular target: PTK2B (UniProt Q14289)
[4] = molecular target: RAF1 (UniProt P04049)
[5] = molecular target: RAF1_S257L (clone: RAF1_mut) (UniProt P04049)
[6] = molecular target: RET (UniProt P07949)
[7] = molecular target: RET_M918T (clone: RET_mut) (UniProt P07949)
[8] = molecular target: RIOK1 (UniProt Q9BRS2)
[9] = molecular target: RIPK1 (UniProt Q13546)
[10] = molecular target: RIPK2 (UniProt O43353)

Measured: number of time points

COc1ncc2cc(C(=O)Nc3cc(C(=O)NCc4cccc(Cl)c4)ccc3Cl)c(=O)[nH]c2n1 (2.5 µM)
0: all assays above

C=CC(=O)N1CCC[C@@H](n2c(=O)n(-c3ccc(Oc4ccccc4)cc3)c3c(N)nccc32)C1 [Tolebrutinib] (10 µM)
0: all assays above

Cc1c(Br)c(Br)c2c3c1nc(N1CCNCC1)n3CCC2 [SEL120-34A (monohydrochloride)] (2.5 µM)
0: all assays above

C=CC(=O)Nc1cccc(Nc2nc(Nc3ccc(Oc4ccnc(C(=O)NC)c4)cc3)ncc2F)c1 (2.5 µM)
0: all assays above

CCc1nc(C(N)=O)c(Nc2ccc(N3CCC(N4CCN(C)CC4)CC3)c(OC)c2)nc1NC1CCC(OC)CC1 (stereo not given) [EML4-ALK kinase inhibitor 1] (2.5 µM)
0: all assays above

Three compounds already listed, arranged by molecular weight, smallest number first.
C=CC(=O)N1CCC[C@@H](n2c(=O)n(-c3ccc(Oc4ccccc4)cc3)c3c(N)nccc32)C1 [Tolebrutinib] (10 µM)
0: all assays above

COc1ncc2cc(C(=O)Nc3cc(C(=O)NCc4cccc(Cl)c4)ccc3Cl)c(=O)[nH]c2n1 (2.5 µM)
0: all assays above

CCc1nc(C(N)=O)c(Nc2ccc(N3CCC(N4CCN(C)CC4)CC3)c(OC)c2)nc1NC1CCC(OC)CC1 (stereo not given) [EML4-ALK kinase inhibitor 1] (2.5 µM)
0: all assays above

(list continues)

O=C(O)/C=C/c1cc(Br)c(Br)c(Br)c1Br (10 µM)
0: all assays above

COc1ccc(C2CC(c3ccc(Cl)cc3)=NN2c2nc(-c3ccncc3)cs2)cc1 (stereo not given) [mTOR inhibitor-8] (10 µM)
0: all assays above

Cc1ccc(Nc2c(C(N)=O)cnc3cc(-c4ccncc4)ccc23)cc1C [cFMS Receptor Inhibitor II] (10 µM)
0: all assays above

O=c1[nH]nc(Sc2ncc([N+](=O)[O-])s2)n1-c1ccc2c(c1)OCCO2 (2.5 µM)
0: all assays above

CC(=O)Nc1nc(C)c(-c2ccc(Cl)c(S(=O)(=O)NCCO)c2)s1 (10 µM)
4: [5]
1: [2] | [8] | [9]
0: all other assays above

Nc1nc2c(ncn2COCCO)c(=O)[nH]1 [Acyclovir] (10 µM)
0: all assays above

O=C(Nc1nc2cccc(-c3ccc(CN4CCS(=O)(=O)CC4)cc3)n2n1)C1CC1 [Filgotinib] (2.5 µM)
0: all assays above

Cc1ccc(CNC(=O)N2CCC[C@]3(CCN(Cc4ccc(Cl)c(Cl)c4)C3)C2)cc1 (10 µM)
0: all assays above

C[C@H]1CNC(=O)c2cnn3ccc(nc23)N[C@H](C)c2cc(F)ccc2O1 [Repotrectinib] (2.5 µM)
2: [8] | [9]
3: [5]
0: [1] | [3] | [6]
1: all other assays above

CNC(=O)c1ccc(-c2cnc3ncc(Cc4ccc5ncccc5c4)n3n2)cc1F [Capmatinib] (10 µM)
0: all assays above

C[C@]1(O)C[C@@](N)(c2ccc(-c3nc4n(c3-c3ccccc3)COc3ccncc3-4)cc2)C1 [TAS-117 (hydrochloride)] (10 µM)
0: all assays above
